# Results from PubChem BioAssay AID540275 (National Center for Advancing Translational Sciences (NCATS), 2011).
# Chains of the proteins cited; added tags and fusions are not shown.
# UniProt Q8NER1, whole entry, looked up: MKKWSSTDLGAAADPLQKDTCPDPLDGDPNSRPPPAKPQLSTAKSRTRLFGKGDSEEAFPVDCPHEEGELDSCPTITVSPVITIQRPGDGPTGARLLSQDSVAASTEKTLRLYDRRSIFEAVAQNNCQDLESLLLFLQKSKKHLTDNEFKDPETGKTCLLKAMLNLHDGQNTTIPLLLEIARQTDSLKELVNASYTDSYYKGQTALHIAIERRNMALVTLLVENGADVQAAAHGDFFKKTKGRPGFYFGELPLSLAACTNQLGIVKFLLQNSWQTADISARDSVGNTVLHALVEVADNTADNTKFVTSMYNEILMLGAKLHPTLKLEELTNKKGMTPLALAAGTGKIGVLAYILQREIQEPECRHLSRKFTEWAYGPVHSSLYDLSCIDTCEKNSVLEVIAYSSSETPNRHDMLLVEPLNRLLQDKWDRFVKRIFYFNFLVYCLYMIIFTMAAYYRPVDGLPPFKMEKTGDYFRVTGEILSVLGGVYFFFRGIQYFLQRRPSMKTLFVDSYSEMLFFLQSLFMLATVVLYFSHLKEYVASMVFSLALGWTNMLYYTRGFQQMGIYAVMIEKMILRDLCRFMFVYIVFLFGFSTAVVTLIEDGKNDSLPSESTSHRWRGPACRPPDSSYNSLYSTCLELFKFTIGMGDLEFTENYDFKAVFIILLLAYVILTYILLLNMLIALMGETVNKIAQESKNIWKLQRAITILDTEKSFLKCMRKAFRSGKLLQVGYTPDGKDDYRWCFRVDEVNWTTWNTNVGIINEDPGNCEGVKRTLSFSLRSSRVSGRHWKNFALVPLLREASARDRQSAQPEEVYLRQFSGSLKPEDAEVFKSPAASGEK
# Several values for one entry are separate records, joined by “and”; a condition that tells them apart may be missing. Equal entries are not always repeated. Out of some 320,000 compounds screened, about 620 (0.19%) were called active. Inconclusive results, whose numbers are uncertain, are shown with a selection of clear calls. Cut-off read from the data, not from the text of the source: active = activation above about 80%; inconclusive = between about 30% and that limit; inactive = weaker than that.
# Molecular target: Transient receptor potential cation channel subfamily V member 1 (Homo sapiens) (UniProt Q8NER1)
# Experiment: HTS Assay for Compounds that Act as Agonists of the Vanilloid Receptor 1; note: 0% is about no effect
# Details: TRPV1-expressing cells, Fluo-8 calcium influx, agonist mode; at 8.33 µM, stronger effect = higher value
# In short: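 Cells expressing TRPV1 were dye-loaded with Fluo-8 and read kinetically: 10 s baseline, 3 min after compound (agonist portion), then 2 min after EC20 capsaicin (allosteric enhancer portion). Calcium-bound dye fluorescence at 480/520 nm.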
row,Compound,activation
1,COC(=O)c1[nH]c2ccc(C)cc2c1NC(=O)CN1CCC(C)CC1,inconclusive: 70.1%
2,Cc1ccc(S(=O)(=O)N2CCOCC2)cc1C(=O)Nc1ccc2c(c1)CCC2,active: 82.8%
3,CC(=O)c1cccc(Nc2nc(-c3ccccc3)cs2)c1,inconclusive: 33.3%
4,O=C(NCCC1=CCCCC1)C1CCCN(S(=O)(=O)c2ccc(F)cc2)C1 (stereo not given),inconclusive: 67%
5,C/C(=N\N=C(/N)SC1CC(=O)N(c2ccc(Cl)cc2)C1=O)c1cccs1 (stereo not given),inactive: -0.932%
6,Cc1ccccc1OCCCC(=O)Nc1ccc(N2CCOCC2)cc1,inconclusive: 49.6%
7,Cc1ccc(-c2cc(C(=O)N3CCCC3)no2)cc1,inconclusive: 43.3%
8,Cc1nc2c(c3c1[nH]c1ccccc13)C(=O)CC(C)(C)C2,inconclusive: 34.9%
9,CC(C)(C)c1nc(NC(=O)Nc2ccccc2)sc1Br,inconclusive: 42.9%
10,Cc1ccc2c(c1)sc(=NC(=O)c1cccs1)n2C,inactive: 10.2%
11,COc1ccc(CC(=O)n2c(CC#N)nc3ccccc32)cc1OC,inactive: 3.28%
12,Cc1sc2nc(CN(Cc3cccs3)C(=O)NC3CCCCC3)[nH]c(=O)c2c1C,inconclusive: 30.6%
13,Cc1nn(-c2ccccc2)nc1C(=O)OCC(=O)N1CCC(C)CC1,inconclusive: 44%
14,O=C(c1ccc(Oc2ccc([N+](=O)[O-])cc2)cc1)N1CCCCCC1,inactive: 3.35%
15,OCCN1CCN(C(=S)c2ccc(Cl)c(Cl)c2)CC1,inconclusive: 30.7%
16,CC(C)(C)c1ccc(/C=N/NC(=O)c2ccccn2)cc1,active: 83%
17,O=C(Nc1ccn(Cc2ccccc2)n1)c1ccc2c(c1)OCO2,inconclusive: 56%
18,Cc1[nH][nH]c(=O)c1C=NCc1cccc(C(F)(F)F)c1,inconclusive: 43.5%
19,Cc1ccc(NC(=O)c2cccc(S(=O)(=O)N3CCCCC3)c2)cc1,inconclusive: 57.4%
20,Cc1cccc(NC(=O)c2ccc3c(=O)n(CC4CCCO4)c(=S)[nH]c3c2)c1 (stereo not given),inconclusive: 48.4%
21,Nc1ccccc1Nc1cc(-c2ccccc2)nn1-c1ccccc1,inconclusive: 32.3%
22,CC(C)N1C(=O)S/C(=C/c2ccc3c(c2)n(C)c(=O)n3C)C1=O,inactive: 6.08%
23,COC(=O)c1c(NC(=O)c2c(-c3ccccc3Cl)noc2C)sc2c1CCC2,inactive: 16.2%

row,Compound,activation
1,COc1ccc(-n2[nH]c(C)cc2=O)cc1,inactive: -0.663%
2,N#Cc1cc2ccccc2nc1SCC(=O)Nc1ccccc1N1CCOCC1,inconclusive: 38%
3,Cc1ccc(NC(=O)c2ccc(Cl)cc2[N+](=O)[O-])nc1,inactive: -1%
4,COCCn1nnnc1CN(CCc1ccccc1)Cc1cc2ccc(C)cc2[nH]c1=O,inactive: 23.4%
5,O=C(NCc1ccc2c(c1)OCO2)c1nc(S(=O)(=O)Cc2ccccc2)ncc1Cl,inactive: -2.7%
6,O=C(Nc1cnn(Cc2ccc(F)cc2)c1)c1noc2c1CCCC2,inconclusive: 32.6%
7,O=C(Nc1ccc(F)cc1)c1oc2ccccc2c1NC(=O)C1CCCC1,inconclusive: 66.8%
8,COc1cccc(CC(=O)NC2CCCN(Cc3ccc(Cl)cc3)C2)c1 (stereo not given),inconclusive: 32.8%
9,COC(=O)N/N=C(\C)c1ccccc1Br,inactive: -2.76%
10,CCN(CC)c1ccc(NC(=O)c2ccc3c(c2)OCO3)cc1,active: 82.9%
11,CC(C)COc1cccc(C(=O)NNC(=O)C2COc3ccccc3O2)c1 (stereo not given),inconclusive: 64.7%
12,CN(CCOc1ccccc1)C(=O)CNC(=O)c1ccc(C(C)(C)C)cc1,inconclusive: 43.5%
13,O=C(CCN1CCN(c2ccccc2F)CC1)Nc1ccccc1Cl,inconclusive: 37.9%
14,O=C1CC(c2ccccc2)CN1Cc1ccccc1 (stereo not given),inconclusive: 53.4%
15,CC(C)OC(=O)CSc1nc(Cc2cccs2)nc2ccccc12,inconclusive: 48.9%
16,CC(CCN1CCN(CCO)CC1)c1ccccc1 (stereo not given),inactive: -0.642%
17,CCC(C(=O)NC1CCCCC1)n1c(SCc2ccc(F)cc2)nc2ccncc21 (stereo not given),inactive: -1.83% and inactive: -0.803%
18,Cc1cc2oc(=O)c(CC(=O)NCCCO)c(C)c2c2occ(C(C)(C)C)c12,inconclusive: 77%
19,COc1cc(/C=C2\CCOC2=O)cc(OC)c1OC,inactive: -9.99%
20,COCCN=C1NN=C(c2ccc(NC(C)=O)cc2)CS1,inactive: 2.64%
21,Fc1ccc(-c2nnc(-c3ccc(F)cc3)o2)cc1,inconclusive: 45.6%
22,CCOc1ccc(C(=O)/C=C/c2ccc(SC)cc2)cc1,inactive: 0.901%
23,O=C(CSc1nnc(-c2cccnc2)n1CCN1CCCCC1)Nc1cccc(Cl)c1,inactive: -0.848%

row,Compound,activation
1,CCC(C)Oc1cccc(OCCCCN2C(=O)NC(C)(C)C2=O)c1 (stereo not given),inconclusive: 49.8%
2,Cc1cc(C)cc(NC(=S)N2CCC(NC(=O)C3CC3)CC2)c1,inactive: -0.163%
3,Cc1c(Cl)cccc1NC(=O)Nc1cccnc1,inconclusive: 42.6%
4,Cc1cccc(OCC(=O)NCC(C)(C)N2CCOCC2)c1,inactive: -0.91%
5,CC(C)CN1C(=O)/C(=C/c2cccs2)NC1=S,inconclusive: 36.7%
6,O=C1CCN(CCc2ccccc2)CCN1[C@H](CSc1ccccc1)Cc1ccccc1,inactive: 23.8%
7,CC(=O)c1c(C)[nH]c(C(=O)Nc2nc(-c3ccc(-c4ccccc4)cc3)cs2)c1C,inactive: 0.996%
8,CCCCC[C@H]1CN(Cc2ccc(OC)cc2)C(=O)[C@@H]1CC(=O)NCc1ccccc1,inconclusive: 32.8%
9,Cc1cc(C)cc(N(CC(=O)NCCSc2ccccn2)S(=O)(=O)c2ccccc2)c1,inconclusive: 34.1%
10,O=S(=O)(c1ccc(N2CCC(c3ccc(Cl)cc3)=N2)cc1)N(CCO)CCO,inactive: 3.11%
11,O=C(N/N=C/C=C/c1ccc(Br)cc1)C(O)c1ccccc1 (stereo not given),inactive: 3.57%
12,CCOC(=O)C1CCCN(C(=O)c2cc(Cl)ccc2NC(=O)C2=C(C)OCCS2)C1 (stereo not given),inconclusive: 41.8%
13,O=C(c1ccco1)N1CCN(c2ncnc3c2[nH]c2ccc(Br)cc23)CC1,inactive: -0.568%
14,CC(=O)/C(=N\Nc1ccc(C)cc1)N1CCOCC1,inconclusive: 32%
15,Cc1ccc(N2C(=O)N(CC(=O)NCc3ccccc3Cl)C(=O)C2C)cc1 (stereo not given),inconclusive: 40.8%
16,CCn1nc(C)cc1C(=O)Sc1ccc(Cl)cc1Cl,inactive: -2.31%
17,COC(=O)c1ccc(NC(=S)NCCc2cccc(C)c2)cc1,inconclusive: 72.8%
18,COc1cc(OC)c(C2=NOC(C(=O)Nc3c(C)nn(CC(=O)N4CCCC4)c3C)C2)cc1Cl (stereo not given),inconclusive: 69.1%
19,CCCCNC(=S)Nc1ccc(Cl)cc1,inconclusive: 37.2%
20,N#CC1=C(N)S[C@@H](C(=O)c2ccc(F)cc2)[C@@H]1c1cccs1,inactive: 1.95%
21,O=C(CSc1nnc(-c2ccco2)n1Cc1ccccc1)c1ccccc1,inconclusive: 38.6%
22,CC1CCN(Cc2nnnn2-c2cccc([N+](=O)[O-])c2)CC1,inconclusive: 43%
23,CCOC(=O)C1CCCN(c2ncnc3c2oc2ccccc23)C1 (stereo not given),inactive: 20.6%

row,Compound,activation
1,O=C(Oc1ccc(N(Cc2cccs2)C2=NS(=O)(=O)c3ccccc32)cc1)c1ccc(Cl)cc1,inactive: -1.05%
2,Cc1ccc(C)c(N2CCN(C(=O)CCNS(=O)(=O)c3ccc4c(c3)oc(=O)n4C)CC2)c1,inconclusive: 55.8%
3,Cc1cc(S(=O)(=O)N2CCCC(C(=O)Nc3ccc(C(=O)O)cc3)C2)ccc1Cl (stereo not given),inactive: -0.209%
4,Cc1nn(Cc2ccc(Cl)cc2)c(C)c1NC(=O)CCCn1nc([N+](=O)[O-])c(Cl)c1C,inconclusive: 47.7%
5,O=C(O)c1cc(N/N=C/c2ccc3c(c2)OCCO3)ccc1Cl,inactive: 0.452%
6,O=C(Cc1ccccc1)NCCSCc1ccc(Cl)cc1,inconclusive: 64.7%
7,CCn1cc(C(=O)NCc2ccco2)c(=O)c2cc(S(=O)(=O)N3CCCCCC3)ccc21,inconclusive: 51.2%
8,O=C1SCC(c2ccccc2)=NN1Cc1ccccc1,inconclusive: 35.5%
9,O=C1CC2(CCN(C(=O)c3ccc(Br)cc3)CC2)Oc2ccccc21,inconclusive: 37.2%
10,Cc1ccc(S(=O)(=O)N2CCN(C(=O)CN3CCCSc4ccccc43)CC2)cc1,inactive: 6.88%
11,O=C(CCC1CCCCC1)NNC(=O)NC12CC3CC(CC(C3)C1)C2,inactive: 2.45%
12,COc1cc(C2CC(=O)N(CC(=O)NCc3ccco3)c3ccccc3S2)cc(OC)c1OC (stereo not given),inconclusive: 32.5%
13,Fc1ccc(CNC(=S)Nc2ccc(OC(F)F)cc2)cc1,inconclusive: 68.2%
14,Cc1ccc(C(C)C)c(OCc2ccc(C(=O)N/N=C/c3ccc(O)c(O)c3)cc2)c1,inconclusive: 74.3%
15,O=C(NCCCc1ccccc1)Nc1ccccc1,inconclusive: 67.6%
16,CCn1nc(C(=O)Nc2ccc(Cl)c(S(=O)(=O)N3CCOCC3)c2)c2ccccc2c1=O,inactive: 3.34%
17,O=C(COc1cccc(C(F)(F)F)c1)N1CCN(c2ccccc2O)CC1,inconclusive: 71.6%
18,COc1ccc(CNC(=O)C2CC(c3cc(C(F)(F)F)cc(C(F)(F)F)c3)=NO2)cc1 (stereo not given),inconclusive: 53%
19,COc1ccc(/C(N)=N/OC(=O)c2ccco2)cc1,inactive: 8.75%
20,Cc1ccc(C)c(N2CCN(CC(=O)Nc3ccc4[nH]c(=O)[nH]c4c3)CC2)c1,inconclusive: 44.3%
21,COc1cc(/C=C/C(=O)OCC(=O)Nc2ccc(C)c(S(=O)(=O)N3CCCCC3)c2)ccc1O,inactive: -4.32%

# In a second layout: results already given
row | Compound | activation
1 | COC(=O)c1[nH]c2ccc(C)cc2c1NC(=O)CN1CCC(C)CC1 | inconclusive: 70.1%
4 | O=C(NCCC1=CCCCC1)C1CCCN(S(=O)(=O)c2ccc(F)cc2)C1 (stereo not given) | inconclusive: 67%
9 | CC(C)(C)c1nc(NC(=O)Nc2ccccc2)sc1Br | inconclusive: 42.9%
11 | COc1ccc(CC(=O)n2c(CC#N)nc3ccccc32)cc1OC | inactive: 3.28%
13 | Cc1nn(-c2ccccc2)nc1C(=O)OCC(=O)N1CCC(C)CC1 | inconclusive: 44%
20 | Cc1cccc(NC(=O)c2ccc3c(=O)n(CC4CCCO4)c(=S)[nH]c3c2)c1 (stereo not given) | inconclusive: 48.4%
23 | COC(=O)c1c(NC(=O)c2c(-c3ccccc3Cl)noc2C)sc2c1CCC2 | inactive: 16.2%
2 | N#Cc1cc2ccccc2nc1SCC(=O)Nc1ccccc1N1CCOCC1 | inconclusive: 38%
5 | O=C(NCc1ccc2c(c1)OCO2)c1nc(S(=O)(=O)Cc2ccccc2)ncc1Cl | inactive: -2.7%
6 | O=C(Nc1cnn(Cc2ccc(F)cc2)c1)c1noc2c1CCCC2 | inconclusive: 32.6%
8 | COc1cccc(CC(=O)NC2CCCN(Cc3ccc(Cl)cc3)C2)c1 (stereo not given) | inconclusive: 32.8%
11 | CC(C)COc1cccc(C(=O)NNC(=O)C2COc3ccccc3O2)c1 (stereo not given) | inconclusive: 64.7%
16 | CC(CCN1CCN(CCO)CC1)c1ccccc1 (stereo not given) | inactive: -0.642%
21 | Fc1ccc(-c2nnc(-c3ccc(F)cc3)o2)cc1 | inconclusive: 45.6%
1 | CCC(C)Oc1cccc(OCCCCN2C(=O)NC(C)(C)C2=O)c1 (stereo not given) | inconclusive: 49.8%
2 | Cc1cc(C)cc(NC(=S)N2CCC(NC(=O)C3CC3)CC2)c1 | inactive: -0.163%
5 | CC(C)CN1C(=O)/C(=C/c2cccs2)NC1=S | inconclusive: 36.7%
12 | CCOC(=O)C1CCCN(C(=O)c2cc(Cl)ccc2NC(=O)C2=C(C)OCCS2)C1 (stereo not given) | inconclusive: 41.8%
14 | CC(=O)/C(=N\Nc1ccc(C)cc1)N1CCOCC1 | inconclusive: 32%
15 | Cc1ccc(N2C(=O)N(CC(=O)NCc3ccccc3Cl)C(=O)C2C)cc1 (stereo not given) | inconclusive: 40.8%
19 | CCCCNC(=S)Nc1ccc(Cl)cc1 | inconclusive: 37.2%
20 | N#CC1=C(N)S[C@@H](C(=O)c2ccc(F)cc2)[C@@H]1c1cccs1 | inactive: 1.95%
23 | CCOC(=O)C1CCCN(c2ncnc3c2oc2ccccc23)C1 (stereo not given) | inactive: 20.6%
3 | Cc1cc(S(=O)(=O)N2CCCC(C(=O)Nc3ccc(C(=O)O)cc3)C2)ccc1Cl (stereo not given) | inactive: -0.209%
11 | O=C(CCC1CCCCC1)NNC(=O)NC12CC3CC(CC(C3)C1)C2 | inactive: 2.45%
16 | CCn1nc(C(=O)Nc2ccc(Cl)c(S(=O)(=O)N3CCOCC3)c2)c2ccccc2c1=O | inactive: 3.34%
20 | Cc1ccc(C)c(N2CCN(CC(=O)Nc3ccc4[nH]c(=O)[nH]c4c3)CC2)c1 | inconclusive: 44.3%
21 | COc1cc(/C=C/C(=O)OCC(=O)Nc2ccc(C)c(S(=O)(=O)N3CCCCC3)c2)ccc1O | inactive: -4.32%
